Reference: the supplement of paper PMC10849652
The list shows a part of the results.

Amino acid sequences for entries named in this document (tags omitted). A change or cut given only in a name is not applied to a line headed by its entry.
UniProt Q5BKX6: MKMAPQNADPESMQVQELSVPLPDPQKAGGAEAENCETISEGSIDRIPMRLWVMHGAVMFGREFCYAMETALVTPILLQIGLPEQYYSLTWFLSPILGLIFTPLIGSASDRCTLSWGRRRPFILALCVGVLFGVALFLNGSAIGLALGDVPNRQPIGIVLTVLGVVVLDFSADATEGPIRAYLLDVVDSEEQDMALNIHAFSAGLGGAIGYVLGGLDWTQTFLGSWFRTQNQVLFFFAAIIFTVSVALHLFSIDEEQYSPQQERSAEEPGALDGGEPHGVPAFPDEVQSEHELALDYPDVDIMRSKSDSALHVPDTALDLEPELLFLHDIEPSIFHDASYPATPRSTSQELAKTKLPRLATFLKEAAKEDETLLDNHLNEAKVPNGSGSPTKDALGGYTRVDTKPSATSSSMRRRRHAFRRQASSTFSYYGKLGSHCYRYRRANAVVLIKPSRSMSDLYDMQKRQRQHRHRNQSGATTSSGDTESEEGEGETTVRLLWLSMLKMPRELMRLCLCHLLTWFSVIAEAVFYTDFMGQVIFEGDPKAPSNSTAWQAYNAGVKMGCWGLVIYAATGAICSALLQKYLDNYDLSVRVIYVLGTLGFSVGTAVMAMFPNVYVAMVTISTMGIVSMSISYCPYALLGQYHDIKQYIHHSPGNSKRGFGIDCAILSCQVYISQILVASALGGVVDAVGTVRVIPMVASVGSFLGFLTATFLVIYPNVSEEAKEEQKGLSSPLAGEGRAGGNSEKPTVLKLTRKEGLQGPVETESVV
UniProt Q96A29: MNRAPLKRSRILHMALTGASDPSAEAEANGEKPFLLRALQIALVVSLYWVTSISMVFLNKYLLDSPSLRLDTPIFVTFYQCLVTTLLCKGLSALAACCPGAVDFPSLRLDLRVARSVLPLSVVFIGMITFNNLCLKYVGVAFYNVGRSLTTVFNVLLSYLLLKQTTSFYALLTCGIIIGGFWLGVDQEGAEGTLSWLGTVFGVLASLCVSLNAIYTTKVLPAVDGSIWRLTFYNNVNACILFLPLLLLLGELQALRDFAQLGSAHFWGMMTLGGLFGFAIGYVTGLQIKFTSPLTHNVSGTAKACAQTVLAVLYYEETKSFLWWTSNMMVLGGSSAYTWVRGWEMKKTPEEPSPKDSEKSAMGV
UniProt Q9UPY5: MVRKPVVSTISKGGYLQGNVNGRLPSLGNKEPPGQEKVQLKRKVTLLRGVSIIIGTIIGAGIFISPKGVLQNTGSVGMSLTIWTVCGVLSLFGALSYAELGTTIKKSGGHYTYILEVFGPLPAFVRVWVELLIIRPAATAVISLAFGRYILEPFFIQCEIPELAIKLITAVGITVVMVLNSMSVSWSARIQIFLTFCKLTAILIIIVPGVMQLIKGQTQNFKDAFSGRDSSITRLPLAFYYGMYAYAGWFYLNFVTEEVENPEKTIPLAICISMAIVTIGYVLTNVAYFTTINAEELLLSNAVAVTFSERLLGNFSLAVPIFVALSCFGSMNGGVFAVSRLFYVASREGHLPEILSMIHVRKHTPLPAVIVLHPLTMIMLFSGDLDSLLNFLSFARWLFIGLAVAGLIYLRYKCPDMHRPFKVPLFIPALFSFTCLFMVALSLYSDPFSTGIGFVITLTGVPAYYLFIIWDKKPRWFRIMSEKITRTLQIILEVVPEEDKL
UniProt A1A5C7: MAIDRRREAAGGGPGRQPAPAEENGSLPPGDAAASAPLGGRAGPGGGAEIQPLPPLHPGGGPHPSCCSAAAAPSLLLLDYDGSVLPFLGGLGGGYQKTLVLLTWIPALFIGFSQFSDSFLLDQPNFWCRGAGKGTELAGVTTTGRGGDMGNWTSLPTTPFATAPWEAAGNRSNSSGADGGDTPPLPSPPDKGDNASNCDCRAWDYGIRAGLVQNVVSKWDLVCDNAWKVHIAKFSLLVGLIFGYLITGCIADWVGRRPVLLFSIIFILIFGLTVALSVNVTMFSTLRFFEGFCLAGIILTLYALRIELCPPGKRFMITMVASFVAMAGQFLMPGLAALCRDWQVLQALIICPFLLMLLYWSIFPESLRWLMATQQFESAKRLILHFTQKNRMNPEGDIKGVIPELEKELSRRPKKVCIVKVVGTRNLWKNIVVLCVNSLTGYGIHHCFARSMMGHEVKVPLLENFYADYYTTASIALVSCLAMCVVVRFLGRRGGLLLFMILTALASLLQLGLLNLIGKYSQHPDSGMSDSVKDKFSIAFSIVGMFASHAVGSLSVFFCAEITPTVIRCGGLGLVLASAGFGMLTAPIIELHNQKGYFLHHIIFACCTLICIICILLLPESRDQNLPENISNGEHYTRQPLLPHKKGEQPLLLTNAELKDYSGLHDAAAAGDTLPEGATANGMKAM
UniProt Q70HW3: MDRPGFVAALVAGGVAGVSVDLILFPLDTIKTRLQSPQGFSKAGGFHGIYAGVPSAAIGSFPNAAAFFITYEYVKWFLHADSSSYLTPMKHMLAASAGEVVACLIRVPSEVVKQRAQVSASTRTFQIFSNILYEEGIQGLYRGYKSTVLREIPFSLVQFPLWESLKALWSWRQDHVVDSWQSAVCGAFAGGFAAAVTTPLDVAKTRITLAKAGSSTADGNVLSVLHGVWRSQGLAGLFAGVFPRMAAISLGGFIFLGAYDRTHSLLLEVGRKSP
UniProt P50443: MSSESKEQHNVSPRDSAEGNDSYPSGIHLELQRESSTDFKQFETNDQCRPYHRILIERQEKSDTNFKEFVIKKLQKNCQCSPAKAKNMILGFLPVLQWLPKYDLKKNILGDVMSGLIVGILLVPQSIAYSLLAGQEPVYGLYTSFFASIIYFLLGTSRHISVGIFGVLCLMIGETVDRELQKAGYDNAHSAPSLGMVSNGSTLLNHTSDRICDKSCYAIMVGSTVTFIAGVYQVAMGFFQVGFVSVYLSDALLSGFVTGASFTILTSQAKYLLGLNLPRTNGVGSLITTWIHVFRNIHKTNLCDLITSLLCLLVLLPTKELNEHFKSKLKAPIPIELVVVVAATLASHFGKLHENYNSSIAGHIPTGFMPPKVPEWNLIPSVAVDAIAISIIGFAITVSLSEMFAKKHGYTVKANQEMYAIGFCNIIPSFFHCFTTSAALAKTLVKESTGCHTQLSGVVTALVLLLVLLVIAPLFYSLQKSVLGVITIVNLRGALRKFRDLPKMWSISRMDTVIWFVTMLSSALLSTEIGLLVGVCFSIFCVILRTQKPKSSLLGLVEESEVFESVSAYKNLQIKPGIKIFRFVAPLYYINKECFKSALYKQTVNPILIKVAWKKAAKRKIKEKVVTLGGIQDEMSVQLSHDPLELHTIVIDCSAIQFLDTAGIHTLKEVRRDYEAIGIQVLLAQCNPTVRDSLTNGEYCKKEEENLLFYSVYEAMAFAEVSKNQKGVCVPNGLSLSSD
UniProt O75387: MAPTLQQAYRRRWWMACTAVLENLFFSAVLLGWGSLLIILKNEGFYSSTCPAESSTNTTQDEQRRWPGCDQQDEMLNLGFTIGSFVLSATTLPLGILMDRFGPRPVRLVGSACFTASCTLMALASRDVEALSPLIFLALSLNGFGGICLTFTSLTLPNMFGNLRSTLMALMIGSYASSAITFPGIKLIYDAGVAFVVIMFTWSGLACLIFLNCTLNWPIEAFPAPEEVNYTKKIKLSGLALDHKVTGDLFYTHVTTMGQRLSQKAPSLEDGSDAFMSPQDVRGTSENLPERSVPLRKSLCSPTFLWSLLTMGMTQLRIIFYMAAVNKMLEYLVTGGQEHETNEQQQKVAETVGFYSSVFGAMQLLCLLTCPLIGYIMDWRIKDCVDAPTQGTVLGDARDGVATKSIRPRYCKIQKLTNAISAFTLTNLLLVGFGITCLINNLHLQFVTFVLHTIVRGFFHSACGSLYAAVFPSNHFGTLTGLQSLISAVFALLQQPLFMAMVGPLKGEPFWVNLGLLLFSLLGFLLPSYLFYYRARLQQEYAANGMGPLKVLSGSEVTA
UniProt P30825: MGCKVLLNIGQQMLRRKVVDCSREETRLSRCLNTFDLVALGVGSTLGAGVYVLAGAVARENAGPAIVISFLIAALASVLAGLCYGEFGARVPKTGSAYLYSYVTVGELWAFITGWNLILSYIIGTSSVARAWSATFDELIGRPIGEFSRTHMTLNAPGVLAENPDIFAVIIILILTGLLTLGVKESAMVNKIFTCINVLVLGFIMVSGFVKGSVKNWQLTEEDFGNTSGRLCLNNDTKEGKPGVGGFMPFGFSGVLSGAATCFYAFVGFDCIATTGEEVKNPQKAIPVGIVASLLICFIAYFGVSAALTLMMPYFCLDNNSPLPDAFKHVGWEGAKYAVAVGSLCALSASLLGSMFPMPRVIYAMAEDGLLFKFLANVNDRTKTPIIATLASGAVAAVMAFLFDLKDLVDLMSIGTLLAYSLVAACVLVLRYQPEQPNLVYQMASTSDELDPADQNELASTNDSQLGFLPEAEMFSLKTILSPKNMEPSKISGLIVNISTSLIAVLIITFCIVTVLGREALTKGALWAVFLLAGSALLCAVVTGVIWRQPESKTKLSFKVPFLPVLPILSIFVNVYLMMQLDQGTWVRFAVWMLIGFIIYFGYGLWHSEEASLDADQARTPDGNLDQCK
UniProt Q92536: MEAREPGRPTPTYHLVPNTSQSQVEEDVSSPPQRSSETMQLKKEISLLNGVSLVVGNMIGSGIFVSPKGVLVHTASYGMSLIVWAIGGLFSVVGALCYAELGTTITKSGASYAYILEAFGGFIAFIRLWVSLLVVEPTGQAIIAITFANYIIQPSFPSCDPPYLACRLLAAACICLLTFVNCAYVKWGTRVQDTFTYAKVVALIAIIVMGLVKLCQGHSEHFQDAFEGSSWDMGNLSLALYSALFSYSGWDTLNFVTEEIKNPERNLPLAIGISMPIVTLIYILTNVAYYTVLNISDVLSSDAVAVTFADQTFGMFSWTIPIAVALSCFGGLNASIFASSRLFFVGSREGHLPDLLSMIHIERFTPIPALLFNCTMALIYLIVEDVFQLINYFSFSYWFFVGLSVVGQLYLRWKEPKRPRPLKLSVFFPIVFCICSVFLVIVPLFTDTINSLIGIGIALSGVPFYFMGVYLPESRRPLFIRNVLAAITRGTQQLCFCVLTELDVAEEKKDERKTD
UniProt Q9NY26: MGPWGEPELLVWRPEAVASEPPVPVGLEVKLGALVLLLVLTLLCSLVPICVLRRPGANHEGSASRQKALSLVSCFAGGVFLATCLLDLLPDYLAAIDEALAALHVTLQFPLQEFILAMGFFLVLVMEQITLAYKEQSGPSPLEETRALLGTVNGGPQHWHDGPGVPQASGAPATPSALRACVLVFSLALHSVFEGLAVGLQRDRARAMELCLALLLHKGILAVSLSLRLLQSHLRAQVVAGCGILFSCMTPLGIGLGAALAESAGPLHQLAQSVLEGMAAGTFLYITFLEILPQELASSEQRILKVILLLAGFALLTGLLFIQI
UniProt Q9H2D1: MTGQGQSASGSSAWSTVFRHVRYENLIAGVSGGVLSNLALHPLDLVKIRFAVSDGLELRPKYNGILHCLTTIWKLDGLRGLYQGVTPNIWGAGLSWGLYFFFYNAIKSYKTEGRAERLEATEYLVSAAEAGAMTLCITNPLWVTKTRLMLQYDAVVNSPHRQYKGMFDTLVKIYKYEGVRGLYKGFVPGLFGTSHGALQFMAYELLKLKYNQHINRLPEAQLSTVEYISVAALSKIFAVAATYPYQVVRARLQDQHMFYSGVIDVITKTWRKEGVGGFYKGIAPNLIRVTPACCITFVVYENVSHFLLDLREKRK
UniProt P14672: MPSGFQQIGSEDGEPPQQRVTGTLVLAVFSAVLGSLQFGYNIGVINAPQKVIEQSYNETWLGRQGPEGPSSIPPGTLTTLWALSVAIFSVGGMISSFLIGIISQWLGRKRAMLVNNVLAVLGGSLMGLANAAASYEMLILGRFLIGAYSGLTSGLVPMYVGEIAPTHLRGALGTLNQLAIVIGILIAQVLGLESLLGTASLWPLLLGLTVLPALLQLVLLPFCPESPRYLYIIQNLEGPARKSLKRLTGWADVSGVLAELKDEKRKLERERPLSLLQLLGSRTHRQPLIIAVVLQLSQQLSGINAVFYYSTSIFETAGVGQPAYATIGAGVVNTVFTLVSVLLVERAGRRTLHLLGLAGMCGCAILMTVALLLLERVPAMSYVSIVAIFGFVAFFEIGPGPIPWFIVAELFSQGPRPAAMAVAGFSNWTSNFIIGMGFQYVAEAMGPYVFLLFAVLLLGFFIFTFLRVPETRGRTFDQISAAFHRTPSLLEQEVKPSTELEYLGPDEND
UniProt O15431: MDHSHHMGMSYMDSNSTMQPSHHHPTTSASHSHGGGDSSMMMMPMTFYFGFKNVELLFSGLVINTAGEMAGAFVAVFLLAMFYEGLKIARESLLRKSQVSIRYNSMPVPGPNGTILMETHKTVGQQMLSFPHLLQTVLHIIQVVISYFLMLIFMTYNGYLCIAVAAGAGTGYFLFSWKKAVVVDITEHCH

Each target was assayed with C[C@@H](Oc1cc(-c2cnn(C3CCNCC3)c2)cnc1N)c1c(Cl)ccc(F)c1Cl [crizotinib] (assay: log2 fold change, soluble protein after heating vs DMSO (PISA); higher = thermal stabilisation; K562 lysate, 10 uM; active = over 0.2 and 3.5 SD of the protein, either way, in both replicates (recomputed)).
Method in brief: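 Pellets of K562 cells were dounce-homogenised in PBS pH 7.4 with 1 mM MgCl2, and the crude extract was held at 1 mg/mL protein for a 30 min treatment with 10 μM compound. Aliquots were heated for 3 min over 48°C-58°C and pooled before NP-40 was added to 0.5% at 4°C. The supernatant from 21,000xg for 90 min was quantified by TMTpro 16plex LC-MS/MS with channel sums equalised. Values are reported from duplicates as log-two fold change in thermal stability relative to solvent controls.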

log2 fold change, inactive:
SLC4A1 (UniProt P02730) 0.015, SLC45A4 isoform 3 (UniProt Q5BKX6) -0.01, SLC35C1 (UniProt Q96A29) -0.021, SLC39A14 (UniProt Q15043) 0.02, SLC7A11 (UniProt Q9UPY5) -0.012, SLC5A3 (UniProt P53794) -0.017, SLC22A23 (UniProt A1A5C7) 0.013, SLC25A33 (UniProt Q9BSK2) -0.005, SLC25A44 (UniProt Q96H78) -0.034, SLC25A26 (UniProt Q70HW3) 0.052, SLC35B4 (UniProt Q969S0) -0.104, SLC25A17 (UniProt O43808) -0.052, SLC35B3 (UniProt Q9H1N7) -0.062, SLC25A51 (UniProt Q9H1U9) -0.013, SLC26A2 (UniProt P50443) -0.089, SLC43A1 (UniProt O75387) 0.001, SLC29A2 (UniProt Q14542) -0.068, SLC22A5 isoform 3 (UniProt O76082) 0.26, SLC9A6 isoform 2 (UniProt Q92581) 0.055, SLC52A2 (UniProt Q9HAB3) 0.003, SLC7A1 (UniProt P30825) 0.024, SLC7A6 (UniProt Q92536) 0.054, SLC39A1 (UniProt Q9NY26) -0.061, SLC66A1 (UniProt Q6ZP29) -0.051, SLC5A6 (UniProt Q9Y289) -0.001, SLC25A30 (UniProt Q5SVS4) 0.02, SLC35E1 (UniProt Q96K37) 0.018, SLC25A32 (UniProt Q9H2D1) -0.017, SLC9A8 isoform 2 (UniProt Q9Y2E8) 0.064, SLC2A4 (UniProt P14672) 0.082, SLC30A6 isoform 2 (UniProt Q6NXT4) 0.009, SLC25A46 (UniProt Q96AG3) -0.03, SLC31A1 (UniProt O15431) -0.039, SLC39A7 (UniProt Q92504) 0.006, SLC9A7 (UniProt Q96T83) -0.234
